Experimental data: article PMC10462713
No constants are given. Whether binding was seen depends on the method and setting. Binding seen in cells or lysates may run through a third protein. These calls come from enrichment with a bait or labelling near it, and not all partners need be listed.

The chains behind the UniProt entries cited, without tags or fusion partners.
UniProt P49327: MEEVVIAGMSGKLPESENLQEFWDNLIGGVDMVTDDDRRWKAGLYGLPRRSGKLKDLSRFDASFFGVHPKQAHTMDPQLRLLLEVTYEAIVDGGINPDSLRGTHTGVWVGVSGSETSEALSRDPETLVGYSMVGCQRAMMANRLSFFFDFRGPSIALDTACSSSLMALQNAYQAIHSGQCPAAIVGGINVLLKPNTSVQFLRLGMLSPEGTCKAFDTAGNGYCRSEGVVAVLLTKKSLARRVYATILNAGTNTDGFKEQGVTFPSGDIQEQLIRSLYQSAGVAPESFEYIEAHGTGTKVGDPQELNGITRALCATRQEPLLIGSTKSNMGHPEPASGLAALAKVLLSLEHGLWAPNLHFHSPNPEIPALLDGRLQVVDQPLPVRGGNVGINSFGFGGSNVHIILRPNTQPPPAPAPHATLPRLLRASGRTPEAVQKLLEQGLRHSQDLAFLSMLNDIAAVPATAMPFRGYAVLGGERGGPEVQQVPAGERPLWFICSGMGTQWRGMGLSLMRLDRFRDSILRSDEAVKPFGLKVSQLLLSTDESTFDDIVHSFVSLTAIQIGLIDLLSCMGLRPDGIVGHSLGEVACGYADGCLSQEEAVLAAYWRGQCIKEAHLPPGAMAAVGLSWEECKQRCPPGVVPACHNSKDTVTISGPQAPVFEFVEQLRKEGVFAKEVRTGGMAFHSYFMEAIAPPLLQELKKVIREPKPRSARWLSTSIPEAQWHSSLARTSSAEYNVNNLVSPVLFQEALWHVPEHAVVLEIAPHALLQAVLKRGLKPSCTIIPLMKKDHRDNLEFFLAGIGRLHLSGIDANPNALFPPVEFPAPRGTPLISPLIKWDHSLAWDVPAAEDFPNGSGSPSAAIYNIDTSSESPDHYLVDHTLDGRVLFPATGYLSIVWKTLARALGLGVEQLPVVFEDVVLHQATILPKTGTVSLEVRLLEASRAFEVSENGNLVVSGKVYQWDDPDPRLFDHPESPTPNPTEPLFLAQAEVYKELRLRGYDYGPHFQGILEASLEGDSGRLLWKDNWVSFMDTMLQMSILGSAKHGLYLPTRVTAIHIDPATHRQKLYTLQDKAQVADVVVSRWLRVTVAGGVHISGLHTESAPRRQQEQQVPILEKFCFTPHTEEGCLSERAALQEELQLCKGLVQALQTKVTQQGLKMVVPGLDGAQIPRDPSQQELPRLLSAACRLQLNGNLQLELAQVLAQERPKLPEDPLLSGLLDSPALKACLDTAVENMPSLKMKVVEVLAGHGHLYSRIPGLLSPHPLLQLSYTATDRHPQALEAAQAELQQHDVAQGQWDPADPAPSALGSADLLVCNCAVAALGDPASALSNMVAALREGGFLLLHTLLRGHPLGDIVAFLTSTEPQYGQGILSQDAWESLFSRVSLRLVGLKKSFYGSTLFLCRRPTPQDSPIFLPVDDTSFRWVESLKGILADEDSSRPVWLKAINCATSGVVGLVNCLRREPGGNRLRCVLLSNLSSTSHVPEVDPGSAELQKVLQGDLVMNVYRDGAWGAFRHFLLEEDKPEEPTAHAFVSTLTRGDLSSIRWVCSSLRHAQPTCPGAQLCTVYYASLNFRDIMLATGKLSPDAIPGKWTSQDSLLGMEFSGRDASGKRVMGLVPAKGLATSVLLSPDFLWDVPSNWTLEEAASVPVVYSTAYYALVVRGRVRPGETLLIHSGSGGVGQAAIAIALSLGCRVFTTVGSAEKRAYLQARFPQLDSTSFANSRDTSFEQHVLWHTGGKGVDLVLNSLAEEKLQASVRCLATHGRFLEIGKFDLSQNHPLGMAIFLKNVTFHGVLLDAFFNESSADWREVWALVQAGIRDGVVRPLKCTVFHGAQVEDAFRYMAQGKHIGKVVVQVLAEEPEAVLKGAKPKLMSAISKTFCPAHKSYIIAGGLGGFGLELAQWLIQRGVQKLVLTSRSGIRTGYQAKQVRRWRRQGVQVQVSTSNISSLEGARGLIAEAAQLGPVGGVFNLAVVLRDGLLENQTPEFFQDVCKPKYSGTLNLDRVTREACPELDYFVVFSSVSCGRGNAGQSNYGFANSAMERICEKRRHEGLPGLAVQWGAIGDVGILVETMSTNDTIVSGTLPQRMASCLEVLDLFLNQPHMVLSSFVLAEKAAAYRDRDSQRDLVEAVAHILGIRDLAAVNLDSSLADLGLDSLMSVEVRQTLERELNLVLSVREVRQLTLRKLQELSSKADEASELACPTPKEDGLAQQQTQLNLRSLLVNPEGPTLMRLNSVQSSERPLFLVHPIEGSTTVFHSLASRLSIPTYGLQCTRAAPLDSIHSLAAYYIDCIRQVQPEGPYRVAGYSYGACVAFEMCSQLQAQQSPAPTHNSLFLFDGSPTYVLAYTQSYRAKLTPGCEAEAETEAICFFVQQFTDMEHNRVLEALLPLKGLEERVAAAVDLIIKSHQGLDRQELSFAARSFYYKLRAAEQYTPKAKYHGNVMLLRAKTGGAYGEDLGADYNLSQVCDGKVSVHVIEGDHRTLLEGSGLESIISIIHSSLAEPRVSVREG
UniProt P49792: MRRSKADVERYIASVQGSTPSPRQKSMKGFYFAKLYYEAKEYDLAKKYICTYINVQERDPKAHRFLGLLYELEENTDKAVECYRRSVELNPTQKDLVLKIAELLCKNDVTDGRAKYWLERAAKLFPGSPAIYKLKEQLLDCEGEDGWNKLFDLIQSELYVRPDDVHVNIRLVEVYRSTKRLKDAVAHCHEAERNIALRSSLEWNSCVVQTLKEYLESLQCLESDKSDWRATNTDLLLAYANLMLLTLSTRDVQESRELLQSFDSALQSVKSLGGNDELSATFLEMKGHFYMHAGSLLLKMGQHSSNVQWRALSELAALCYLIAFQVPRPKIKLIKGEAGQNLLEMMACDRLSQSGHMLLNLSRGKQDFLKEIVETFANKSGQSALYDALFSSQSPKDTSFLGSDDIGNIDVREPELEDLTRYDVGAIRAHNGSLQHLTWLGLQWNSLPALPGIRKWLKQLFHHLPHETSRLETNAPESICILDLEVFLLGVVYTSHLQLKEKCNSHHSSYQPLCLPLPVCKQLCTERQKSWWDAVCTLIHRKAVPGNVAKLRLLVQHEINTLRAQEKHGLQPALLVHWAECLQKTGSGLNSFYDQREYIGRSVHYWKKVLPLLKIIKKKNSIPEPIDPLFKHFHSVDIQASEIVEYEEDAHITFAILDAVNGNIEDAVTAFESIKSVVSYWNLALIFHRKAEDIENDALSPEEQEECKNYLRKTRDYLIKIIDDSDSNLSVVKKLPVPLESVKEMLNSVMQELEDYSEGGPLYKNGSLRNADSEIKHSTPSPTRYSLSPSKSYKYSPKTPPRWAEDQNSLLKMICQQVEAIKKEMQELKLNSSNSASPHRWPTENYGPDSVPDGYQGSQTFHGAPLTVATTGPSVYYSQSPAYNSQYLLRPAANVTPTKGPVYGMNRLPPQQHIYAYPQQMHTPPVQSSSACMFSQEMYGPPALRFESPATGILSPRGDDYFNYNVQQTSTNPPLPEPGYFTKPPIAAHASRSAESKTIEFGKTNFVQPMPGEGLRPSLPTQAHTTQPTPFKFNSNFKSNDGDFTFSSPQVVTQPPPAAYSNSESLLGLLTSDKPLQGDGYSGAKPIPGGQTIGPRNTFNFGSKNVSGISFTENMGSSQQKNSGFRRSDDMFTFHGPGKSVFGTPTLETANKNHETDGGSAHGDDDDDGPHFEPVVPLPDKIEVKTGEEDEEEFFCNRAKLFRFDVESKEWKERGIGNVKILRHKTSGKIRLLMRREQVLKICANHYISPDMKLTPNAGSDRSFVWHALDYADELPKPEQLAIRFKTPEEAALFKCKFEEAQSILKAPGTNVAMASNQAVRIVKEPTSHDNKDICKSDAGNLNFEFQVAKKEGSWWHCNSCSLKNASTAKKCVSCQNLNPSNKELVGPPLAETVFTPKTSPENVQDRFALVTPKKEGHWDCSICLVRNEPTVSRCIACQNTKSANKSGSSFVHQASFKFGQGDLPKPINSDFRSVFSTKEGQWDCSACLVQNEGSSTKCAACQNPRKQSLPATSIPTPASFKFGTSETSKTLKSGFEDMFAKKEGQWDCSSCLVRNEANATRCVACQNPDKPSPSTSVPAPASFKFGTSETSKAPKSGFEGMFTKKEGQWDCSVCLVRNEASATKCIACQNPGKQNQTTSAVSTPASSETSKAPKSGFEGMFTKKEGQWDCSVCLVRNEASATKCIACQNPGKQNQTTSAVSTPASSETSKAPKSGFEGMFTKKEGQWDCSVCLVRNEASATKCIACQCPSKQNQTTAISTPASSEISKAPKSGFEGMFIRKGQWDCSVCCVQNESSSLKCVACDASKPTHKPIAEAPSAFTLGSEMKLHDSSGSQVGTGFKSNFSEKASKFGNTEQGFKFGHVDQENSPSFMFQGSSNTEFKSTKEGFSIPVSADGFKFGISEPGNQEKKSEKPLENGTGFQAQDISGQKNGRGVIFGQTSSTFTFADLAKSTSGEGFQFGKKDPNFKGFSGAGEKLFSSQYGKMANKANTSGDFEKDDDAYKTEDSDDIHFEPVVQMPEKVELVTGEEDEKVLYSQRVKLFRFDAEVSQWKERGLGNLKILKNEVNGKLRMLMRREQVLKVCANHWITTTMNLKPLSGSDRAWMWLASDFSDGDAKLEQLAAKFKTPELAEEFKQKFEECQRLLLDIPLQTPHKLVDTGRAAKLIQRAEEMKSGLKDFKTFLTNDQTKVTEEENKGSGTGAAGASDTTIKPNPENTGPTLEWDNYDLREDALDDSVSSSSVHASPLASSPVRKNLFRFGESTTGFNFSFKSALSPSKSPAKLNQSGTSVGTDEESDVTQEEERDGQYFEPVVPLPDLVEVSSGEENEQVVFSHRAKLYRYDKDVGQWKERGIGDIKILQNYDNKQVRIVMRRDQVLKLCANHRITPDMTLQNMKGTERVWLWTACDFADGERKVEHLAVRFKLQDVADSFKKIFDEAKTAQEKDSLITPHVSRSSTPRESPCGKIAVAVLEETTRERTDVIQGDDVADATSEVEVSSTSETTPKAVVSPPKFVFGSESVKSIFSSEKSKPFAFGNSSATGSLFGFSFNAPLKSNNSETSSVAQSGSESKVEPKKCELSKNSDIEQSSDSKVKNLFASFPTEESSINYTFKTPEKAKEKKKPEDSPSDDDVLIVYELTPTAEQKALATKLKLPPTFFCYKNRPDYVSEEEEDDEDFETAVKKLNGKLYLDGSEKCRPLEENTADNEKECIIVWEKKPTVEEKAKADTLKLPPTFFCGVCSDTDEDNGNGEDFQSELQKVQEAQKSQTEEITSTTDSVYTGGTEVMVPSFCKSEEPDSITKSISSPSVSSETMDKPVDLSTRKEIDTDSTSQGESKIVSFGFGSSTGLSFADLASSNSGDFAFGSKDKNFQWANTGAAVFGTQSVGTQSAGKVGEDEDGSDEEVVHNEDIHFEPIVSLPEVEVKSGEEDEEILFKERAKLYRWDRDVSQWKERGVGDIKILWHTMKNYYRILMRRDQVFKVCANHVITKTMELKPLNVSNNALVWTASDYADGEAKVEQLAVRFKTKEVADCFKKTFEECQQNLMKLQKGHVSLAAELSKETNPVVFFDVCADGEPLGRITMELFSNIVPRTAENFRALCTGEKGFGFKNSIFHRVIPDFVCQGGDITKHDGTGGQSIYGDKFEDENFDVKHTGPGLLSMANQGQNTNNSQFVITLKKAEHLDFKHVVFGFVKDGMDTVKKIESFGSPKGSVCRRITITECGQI

Molecular target: Flag-FASN (fatty acid synthase, wild type) (human) (UniProt P49327)
Test: affinity purification with mass spectrometry; Flag-FASN MS; hits intersected with the CircRREB1 pulldown MS

Q: “E3 SUMO-protein ligase RanBP2 (from UniProt P49792 1-3224) (enzyme)” was tested. Which binding did it give?
A: Its binding is “binds”.
